Drawing on paper doi:10.1101/433532, this text covers binding for one substance.

Sequences of proteins named here, by UniProt entry; tags and fusion partners are left off.
UniProt Q92466: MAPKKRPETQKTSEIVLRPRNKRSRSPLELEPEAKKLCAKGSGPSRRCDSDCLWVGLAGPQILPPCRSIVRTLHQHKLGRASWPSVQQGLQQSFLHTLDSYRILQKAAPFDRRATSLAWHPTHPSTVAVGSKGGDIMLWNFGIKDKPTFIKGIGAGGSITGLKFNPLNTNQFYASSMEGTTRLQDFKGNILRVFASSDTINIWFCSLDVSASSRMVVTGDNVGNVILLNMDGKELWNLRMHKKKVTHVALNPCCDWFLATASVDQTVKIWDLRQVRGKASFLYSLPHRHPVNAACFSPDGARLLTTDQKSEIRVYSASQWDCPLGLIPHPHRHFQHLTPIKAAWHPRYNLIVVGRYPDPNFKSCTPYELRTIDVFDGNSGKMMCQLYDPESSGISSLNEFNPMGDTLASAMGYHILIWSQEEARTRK
UniProt Q16531: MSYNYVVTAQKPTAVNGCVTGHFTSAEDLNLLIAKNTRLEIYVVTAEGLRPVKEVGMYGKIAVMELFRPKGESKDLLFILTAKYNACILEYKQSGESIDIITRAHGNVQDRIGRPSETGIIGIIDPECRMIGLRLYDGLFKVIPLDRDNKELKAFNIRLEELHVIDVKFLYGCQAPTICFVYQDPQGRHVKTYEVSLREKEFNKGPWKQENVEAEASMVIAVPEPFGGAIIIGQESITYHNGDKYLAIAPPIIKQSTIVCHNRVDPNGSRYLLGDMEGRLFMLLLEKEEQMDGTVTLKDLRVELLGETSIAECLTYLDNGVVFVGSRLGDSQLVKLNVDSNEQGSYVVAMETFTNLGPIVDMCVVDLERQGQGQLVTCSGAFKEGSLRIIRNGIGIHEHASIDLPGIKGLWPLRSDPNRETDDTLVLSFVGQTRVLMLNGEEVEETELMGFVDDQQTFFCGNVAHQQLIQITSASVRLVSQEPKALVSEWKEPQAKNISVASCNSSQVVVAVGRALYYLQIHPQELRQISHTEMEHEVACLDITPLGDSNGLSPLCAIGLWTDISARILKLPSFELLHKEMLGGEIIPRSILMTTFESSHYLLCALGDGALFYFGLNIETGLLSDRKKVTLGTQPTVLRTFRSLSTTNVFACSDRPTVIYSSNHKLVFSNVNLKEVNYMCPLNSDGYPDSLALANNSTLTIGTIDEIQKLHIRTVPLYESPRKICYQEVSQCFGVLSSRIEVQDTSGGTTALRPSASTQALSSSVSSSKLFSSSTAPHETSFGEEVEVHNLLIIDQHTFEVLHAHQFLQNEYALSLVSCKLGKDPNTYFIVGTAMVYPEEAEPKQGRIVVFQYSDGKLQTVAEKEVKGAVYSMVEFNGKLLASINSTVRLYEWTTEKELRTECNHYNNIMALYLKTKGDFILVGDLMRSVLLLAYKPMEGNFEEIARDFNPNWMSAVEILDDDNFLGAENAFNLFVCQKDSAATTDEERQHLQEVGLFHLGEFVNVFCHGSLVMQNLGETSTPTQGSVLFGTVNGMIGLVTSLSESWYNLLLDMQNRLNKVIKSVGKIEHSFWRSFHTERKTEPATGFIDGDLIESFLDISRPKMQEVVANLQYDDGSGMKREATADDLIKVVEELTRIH

Results are given in words; binding and its absence hold for the method and conditions named. In cells and extracts the contact can be indirect. Some results given as binding are weak or reduced against the parent protein; the word gives no strength.

The experiment concerns the target DDB2 (human (endogenous in HAP1)) (UniProt Q92466). Description: co-IP.

Regarding DDB1 (from UniProt Q16531 1-1140), the binding entry was “binds”.
